Data on one substance can be found in PMC3521654, “The Nuclear Chaperone Nucleophosmin Escorts an Epstein-Barr Virus Nuclear Antigen to Establish Transcriptional Cascades for Latent Infection in Human B Cells” (PLoS Pathogens, 2012).

The chains behind the UniProt entries cited, without tags or fusion partners. Residues count along the entry.
UniProt P12978, residues 300-432: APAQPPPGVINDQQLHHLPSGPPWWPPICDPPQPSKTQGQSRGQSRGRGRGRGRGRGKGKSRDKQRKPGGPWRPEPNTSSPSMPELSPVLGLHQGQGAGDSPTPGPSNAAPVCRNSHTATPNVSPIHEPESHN
UniProt P06748: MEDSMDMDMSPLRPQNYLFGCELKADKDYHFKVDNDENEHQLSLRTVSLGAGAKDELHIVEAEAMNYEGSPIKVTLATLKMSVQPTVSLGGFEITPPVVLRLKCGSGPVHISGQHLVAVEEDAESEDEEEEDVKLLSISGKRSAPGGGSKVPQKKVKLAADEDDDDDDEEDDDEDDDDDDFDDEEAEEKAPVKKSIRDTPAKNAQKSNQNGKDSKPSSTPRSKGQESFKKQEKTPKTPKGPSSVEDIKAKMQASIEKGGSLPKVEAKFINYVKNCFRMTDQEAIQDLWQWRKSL

In the assay the target is GST-E2 300–432 (Epstein-Barr virus) (UniProt P12978). As to the kind of experiment: affinity purification with mass spectrometry; only the target purified.

Results are given in words; binding and its absence hold for the method and conditions named. Binding seen in cells or lysates may run through a third protein. These calls come from enrichment with a bait or labelling near it, and not all partners need be listed.

On to “nucleophosmin (NPM1), endogenous (from UniProt P06748 1-294)”, for which the binding entry was “binds”.
